Measured data: PubChem BioAssay AID1259307 (Sanger Institute, 2017)
In all, the deposit lists 794 reagents; shown is a random part of them. 15 of them (1.9%) were called active. 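Calls reflect lethality without any drug; synergy scores did not enter the calls.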 Viability is capped at 1. Reagent sequences are not shown. Not stated in the record: the amount of reagent, the time to read-out.

Test: 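Identify kinases needed for SW620 growth or enhancing BYL719, cetuximab or trametinib effects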 (primary screen)
System: SW620 colorectal cancer cells
Reagent: siRNA pool against human genes
Challenge: anchor drugs BYL719 at 1 µM, cetuximab at 5 µg/ml or trametinib at 10 nM, each beside a DMSO vehicle arm
Detection: 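Per-well viability versus non-targeting control pool, replicate-averaged, robust z-score from controls; synergy scores for BYL719 1 µM, cetuximab 5 µg/ml, trametinib 10 nM against DMSO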
Reading the numbers: viability robust z-score, no drug and viability vs control, no drug: higher = more viable cells; synergy score with BYL719 and synergy score with cetuximab and synergy score with trametinib: higher = stronger synthetic lethality with the drug
Active means: 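Essential when the viability robust z-score without drug is under -3; synergy scores are ignored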
Meaning of the calls: active = essential (lethal alone); inactive = no change alone

target gene	PubChem SID	viability robust z-score, no drug	viability vs control, no drug	synergy score with BYL719	synergy score with cetuximab	synergy score with trametinib	outcome
PRAG1	SID152147410	0.736	1	0.0649	0.0226	0.097	inactive
TSSK4	SID56478999	0.463	0.975	-0.11	0.0322	0.0145	inactive
PAK4	SID152147637	0.736	1	-0.0557	0	0.0435	inactive
NUP107	SID152154550	-6.43	0.338	-0.106	-0.0471	-0.0207	active
RTN4	SID134315213	0.736	1	-0.0501	0	-0.0929	inactive
ADCK2	SID56478993	0.736	1	0.0642	0.0997	0.106	inactive
TGFBR2	SID152152630	0.57	0.985	-0.0155	-0.0131	0.00218	inactive
MAP3K20	SID152152597	-0.153	0.918	-0.117	-0.082	-0.116	inactive
MARK2	SID152148068	0.141	0.945	-0.0469	0.0247	0.00784	inactive
LATS1	SID56478819	0.549	0.983	-0.0912	-0.0173	-0.0399	inactive
MOS	SID56478732	-0.0714	0.925	-0.00296	-0.0248	-0.0128	inactive
RIOK2	SID134310711	-0.942	0.845	-0.0312	0.00732	-0.0371	inactive
SOS2	SID152153288	0.123	0.943	-0.0589	-0.0566	-0.0374	inactive
SRC	SID56478553	0.265	0.957	0.0238	0.00925	0.0915	inactive
KMT2B	SID134314396	0.55	0.983	-0.108	-0.0172	-0.0193	inactive
ITPKC	SID56479112	0.736	1	0.0651	0.05	0.126	inactive
NUAK1	SID56478923	0.736	1	0.0392	0.0917	0.157	inactive
BRSK2	SID152155603	0.314	0.961	0.0201	-0.0283	0.0745	inactive
PLK1	SID56478632	-6.14	0.365	0.0503	-0.0191	0.000937	active
MAPKAPK2	SID56478668	0.736	1	0.0592	0.0271	0.103	inactive
NEK1	SID152155530	-0.8	0.858	-0.0692	-0.00635	0.0368	inactive
FBXW7	SID152153107	0.226	0.953	-0.135	-0.0471	-0.0367	inactive
NUCKS1	SID152150801	0.736	1	-0.0919	0	-0.0814	inactive
CALM1	SID152156420	0.276	0.958	0.0182	0.0832	0.0626	inactive
TAB1	SID135620883	0.736	1	-0.00413	0	-0.00953	inactive
MOK	SID56478889	0.102	0.942	-0.114	-0.0585	-0.0434	inactive
MAPK3	SID135620708	0.377	0.967	-0.0262	0.00682	0.0497	inactive
PTGS1	SID134310518	-1.16	0.825	0.0151	0.00111	0.058	inactive
PAK2	SID135620709	0.337	0.963	-0.0055	-0.0368	0.028	inactive
MAP3K10	SID56478692	0.736	1	-0.0919	0	-0.0862	inactive
PIM2	SID56479034	0.736	1	-0.0486	0	-0.0154	inactive
EIF2AK3	SID152151333	-2.03	0.745	-0.137	-0.189	-0.198	inactive
CKB	SID56479084	0.209	0.951	-0.109	-0.0486	-0.0777	inactive
PASK	SID56478950	0.0168	0.934	-0.0403	0.0197	0.034	inactive
SYNCRIP	SID134320219	-2.39	0.712	-0.042	-0.0757	-0.0557	inactive
DGKB	SID56479090	-0.116	0.921	0.0782	-0.0282	0.127	inactive
IPMK	SID152147042	0.736	1	-0.0443	0.0471	0.0111	inactive
FGFRL1	SID135622448	-0.176	0.916	-0.1	-0.0416	-0.0909	inactive
TTK	SID56478775	0.508	0.979	0.0676	-0.0211	-0.0145	inactive
PDPK1	SID135620604	-1.33	0.809	0.0335	0.101	0.0199	inactive
EPHB6	SID152155826	0.243	0.954	0.0549	-0.0413	-0.0575	inactive
DAPK1	SID135620826	-0.0162	0.931	-0.0514	-0.0213	0.00124	inactive
DGKG	SID152147412	-0.647	0.872	-0.15	-0.128	-0.0959	inactive
RFK	SID152154046	0.736	1	-0.0919	0	0.0693	inactive
GOLGA5	SID134315128	0.0958	0.941	-0.065	-0.00793	0.0174	inactive
TYRO3	SID56478561	0.0133	0.933	-0.106	-0.063	-0.00754	inactive
RIOK3	SID152150051	-0.173	0.916	0.0334	-0.0223	0.0593	inactive
CKS2	SID56479182	0.0624	0.938	-0.0302	-0.0183	0.0216	inactive
KHK	SID135621242	0.178	0.948	0.0456	-0.0312	-0.0391	inactive
PRKCI	SID152150879	-0.0734	0.925	-0.0172	-0.0375	0.0526	inactive

Limited to “synergy score with trametinib”, for 4 of the entries above:
TYRO3 [SID56478561]	-0.00754
RIOK3 [SID152150051]	0.0593
CKS2 [SID56479182]	0.0216
KHK [SID135621242]	-0.0391
